According to PubChem BioAssay AID1259354 (Paczesny and Yang Labs, IUPUI and University of Michigan, 2018):
“And” between values parts separate entries of the source, which are not always exact repeats. Identical values can stand only once. Hit rate of the full screen: of about 78,000 compounds, about 1,800 (2.3%) were called active. Inconclusive results, whose numbers are uncertain, are shown with a selection of clear calls. Rule as the data show it: active = inhibition above about 30%; inconclusive = mostly about 10% to 28%; inactive = weaker than that.

Protein sequences, listed by entry. Tags and fused reporters are not part of them. Lines headed by an entry give the natural chain unless they say otherwise; changes in a name come on top.
UniProt Q01638: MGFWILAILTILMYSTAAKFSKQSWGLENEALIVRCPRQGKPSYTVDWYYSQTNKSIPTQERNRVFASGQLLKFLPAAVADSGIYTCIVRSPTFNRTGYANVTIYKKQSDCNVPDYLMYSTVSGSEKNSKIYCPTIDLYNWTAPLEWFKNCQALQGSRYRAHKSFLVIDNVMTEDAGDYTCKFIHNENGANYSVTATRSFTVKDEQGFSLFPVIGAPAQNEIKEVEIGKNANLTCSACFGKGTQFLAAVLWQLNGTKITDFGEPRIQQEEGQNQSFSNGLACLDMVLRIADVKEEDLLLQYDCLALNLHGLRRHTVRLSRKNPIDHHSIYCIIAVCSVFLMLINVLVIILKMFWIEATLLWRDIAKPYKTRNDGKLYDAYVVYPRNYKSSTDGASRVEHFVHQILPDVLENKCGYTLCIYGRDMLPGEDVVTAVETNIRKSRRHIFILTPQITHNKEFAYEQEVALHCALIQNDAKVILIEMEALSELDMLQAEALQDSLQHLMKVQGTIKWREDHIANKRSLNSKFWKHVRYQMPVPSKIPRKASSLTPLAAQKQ

What follows are compounds tested against Interleukin-1 receptor-like 1 (Homo sapiens) (UniProt Q01638) (assay: blocks human ST2 binding to IL-33, primary screen, biochemical, AlphaLISA (AID 1259354)). Conditions: AlphaLISA ST2-Fc/biotin-IL-33 interaction, 1 h; at 17 µM, stronger effect = higher value.

Structure (SMILES)	inhibition
O=[N+]([O-])c1ccccc1N=Cc1nc(-c2ccccc2)oc1O	inconclusive: 11%
Cc1ccc(C2=N/C(=C\c3ccc(I)o3)C(=O)O2)cc1[N+](=O)[O-]	inconclusive: 25%
O=c1oc2ccc(Cl)cc2nc1C=C(O)c1ccc(F)cc1	inactive
O=[N+]([O-])c1cc(C=Nc2c(-c3ccco3)nc3ccccn23)c(Cl)cc1Cl	active: 44%
COC(=O)c1ccc(C2C(C(=O)OCc3ccccc3)=C(C)Nc3ncnn32)cc1 (stereo not given)	inactive
COc1ccc2c(=O)c(-c3ccc(F)cc3)c(C)oc2c1	inactive
CC1=C(C(=O)OCC2CCCO2)C(c2ccc(Br)cc2)C2=C(CC(C)(C)CC2=O)N1 (stereo not given)	inactive
CC1=C(C(=O)Nc2ccc(C)cn2)C(c2cccnc2)C2=C(CC(C)(C)CC2=O)N1 (stereo not given)	inactive
Cn1c(=O)c2c(nc(N3CCCCCC3)n2CCSc2nc3ccccc3o2)n(C)c1=O	inconclusive: 15% and inconclusive: 13%
Cc1nc2ccc(S(=O)(=O)N3CCc4c(nc[nH]c4=O)C3)cc2s1	inconclusive: 11%
O=C(CSc1c2c(nc3cc(Cl)ccc13)CCCC2)N1CCN(c2ccccc2)CC1	inconclusive: 28%
O=C(Cn1cnc2c(oc3ccccc32)c1=O)Nc1ccc2c(c1)OCCO2	inconclusive: 13%
COc1ccc(N2C(=O)[C@@H]3C4c5ccccc5C(C(C)O)(c5ccccc54)[C@@H]3C2=O)cc1 (stereo not given in full)	inactive
CC(C)NC(=O)Cn1c(=O)n(CC2CCC(C(=O)N3CCCC3)CC2)c(=O)c2sccc21 (stereo not given)	inactive
Cc1ncc(C)c(N2CC[C@@H](c3ccc4ccccc4c3)[C@H](O)C2)n1	inconclusive: 13%
O=C1CC(NS(=O)(=O)N2CCCC2)CN1C1Cc2ccccc2C1 (stereo not given)	inactive
COc1ccc(-c2ccccc2C(N)=O)c(C)c1	inconclusive: 21%
Oc1ccc(C2=Nn3c(nnc3-c3ccccc3O)SC2)cc1O	inconclusive: 16%
Clc1ccccc1C1CC(c2ccco2)=Nc2ccccc2S1 (stereo not given)	inconclusive: 22%
N#CC(c1ccccc1O)N1N=C(c2ccccc2)CC1c1ccccc1 (stereo not given)	inconclusive: 21%
CC(C)COC(=O)C1C2C=CC3(CN(C(c4ccccc4)c4ccccc4)C(=O)C13)O2 (stereo not given)	inactive
O=C(NC1CCCCC1)N1Cc2[nH]cnc2C[C@H]1c1nc(-c2ccc(Cl)cc2)no1	inconclusive: 13%
O=C(NCCOc1ccccc1F)C12CC3CC(CC(C3)C1)C2	inactive
CCCN=Cc1c(CCC)[nH]n(-c2nc3ccccc3s2)c1=O	inconclusive: 10%

Structure (SMILES)	inhibition
CC(C)(O)C#Cc1ccc(C(=O)N[C@@H]2c3ccccc3C[C@@H]2O)o1	inactive
O=C(Nc1cnn(Cc2ccc(Cl)cc2Cl)c1)c1cc(-c2ccco2)on1	inactive
CN(Cc1cnc2c(-c3ccccc3)cnn2c1)Cc1cc(C(C)(C)C)n[nH]1	inconclusive: 15%
COCc1ccc(C(=O)N(C)CCSc2ccc(C)cc2)s1	inconclusive: 14%
CC1=NN(c2ccccc2)C(=O)C1C(=O)c1ccc(F)cc1 (stereo not given)	active: 37%
CC1=CC[C@@H]2CN(C(=O)CCn3cnc4ccccc43)C[C@@H]2C1	inconclusive: 12%
Cc1ccc(N(C(=O)c2ccc(F)cc2)C2C=CS(=O)(=O)C2)cc1C (stereo not given)	inactive
Cc1ccc(N2CC(NC(=O)Cc3ccc(Cl)cc3)CC2=O)cc1 (stereo not given)	inactive
CCc1ccccc1-c1ncnc2[nH]ccc12	inconclusive: 18%
O=C(Nc1cccc2ncccc12)c1cccs1	inactive
COc1ccc(C(=O)N2CCN=C2SCc2ccc(Br)cc2)cc1	inactive
O=C1NC2=C(C(=O)c3ccccc32)C(c2ccccc2)N1 (stereo not given)	inactive
CSCCC(NC(=O)c1ccccc1)C(=O)Nc1ccc(C)cc1 (stereo not given)	inactive
CCC(=O)Oc1ccc2c(-c3ccccc3)cc(=O)oc2c1	inactive
CN1CCC(N2CC[C@H](c3nnc(-c4cncn4C)o3)C2)CC1	inactive
CCCn1cnc2cc(NCc3ccccc3O)ccc21	inconclusive: 13%
Cc1cc(C)c(S(=O)(=O)NCCn2c(C)cc3ccccc32)c(C)c1	inconclusive: 17%
O=c1c2sccc2n(Cc2ccccc2)c(=O)n1-c1ccc(F)cc1	inconclusive: 13%
CN(C)/C=C1\Nc2ccc(Br)c(Cl)c2C1=O	inconclusive: 24%
Cc1nccn1C(C)C(=O)N1CCC(c2cc(Cc3ccccc3)[nH]n2)CC1 (stereo not given)	inconclusive: 12%
COc1cccc(-c2ccc(C(=O)N3CCNCC3C(=O)NC3CC3)o2)c1 (stereo not given)	inconclusive: 12%
Cc1ccccc1OCC1CN(CN2CCOCC2)C(=O)O1 (stereo not given)	inconclusive: 26%
CCN(CC)c1ccc(C2Oc3nc(SC)nnc3-c3ccccc3N2C(C)=O)c(OC)c1 (stereo not given)	active: 36%
CC(C)(NC(=O)c1cccs1)C(=O)NCC1(c2cccc(F)c2)CCOCC1	inconclusive: 21%

Structure (SMILES)	inhibition
Cc1ccc2c(c1)C(O)(CC(=O)c1cccc([N+](=O)[O-])c1)C(=O)N2 (stereo not given)	inactive
O=C(O)C[C@@H]1CCN(C(=O)Cc2ccccc2)C[C@@H]1CCN1C[C@@H]2C[C@H](C1)c1cccc(=O)n1C2	inconclusive: 10%
CC1CCN(C(=O)CSc2nc3c([nH]c4ccccc43)c(=O)n2C)CC1	inconclusive: 14%
COc1ccc(/C=C/CN2CCCC(CNC(=O)c3cccs3)C2)cc1 (stereo not given)	inactive
CC(=O)c1ccc(NC(=O)O[C@@H]2CO[C@H]3[C@@H]2OC[C@@H]3NC(=S)Nc2ccccc2)cc1	active: 41%
Cc1cc(N2C[C@H]3C[C@H](O)[C@H](O)C[C@H]3C2)nc(-c2ccccc2)n1	inactive
Cc1ccccc1OCC(=O)Nc1ccccc1I	inactive
O=C(CSc1nnc(-c2ccncc2)n1Cc1ccco1)c1cccc([N+](=O)[O-])c1	inactive
O=C(C1CC1)N1CC[C@H](c2nnc(-c3ccc(Cl)cc3)o2)C1	inconclusive: 15%
COc1ccc(CC(=O)NCC2CCCN(Cc3cn(C)c4ccccc34)C2)cc1 (stereo not given)	inactive
COc1ccc(NC(=O)C2CC(=O)c3ccccc32)c(NC(=O)C(C)C)c1 (stereo not given)	inconclusive: 14%
CN1CC23CN(C)CC2(C1)CN(Cc1cc2n(n1)CCNC2)C3 (stereo not given)	inactive
Cc1c(CCC#N)c(-n2ccnc2)n2c(nc3ccccc32)c1C#N	inactive
CC(C)NC(=O)N[C@H]1C[C@@H](c2nc(-c3ccc4c(c3)OCO4)no2)N(C)C1	inconclusive: 24%
Cc1ccc(NC(=O)c2ccco2)cc1C	inconclusive: 18%
Clc1cccc(CN2CCCCCCC2)c1	inconclusive: 13%
COc1ccccc1C1C(C(C)=O)=C(O)C(=O)N1CCc1ccccc1 (stereo not given)	inconclusive: 10%
CCOc1ccccc1N1CCN(S(=O)(=O)c2ccc(Br)cc2)CC1	inconclusive: 10%
Cc1ccc(Nc2cc(C)nc(Nc3ccc(NC(=O)c4ccccc4)cc3)n2)cc1	inconclusive: 24%
O=C(CSc1nc2c(c(=O)n1-c1ccccc1)SCC2)Nc1ccc(F)cc1F	inconclusive: 12%
CN1CC2(CCCN(C(=O)CCn3cnnc3)CC2)OC1=O (stereo not given)	inconclusive: 16%
Cc1ccc(C(=O)N2CCC(Cc3cccc(C(=O)O)c3)CC2)c(=O)n1C	inconclusive: 14%
O=c1n(CCCn2cccc2)nc(C2CCNCC2)n1-c1ccccc1	active: 30%
CNCC(=O)NCc1noc(-c2ccc3c(c2)OCO3)n1	inconclusive: 11%

Structure (SMILES)	inhibition
Cc1cc(C)c(S(=O)(=O)NCCn2c(-c3ccccc3)nc3cccnc32)cc1C	inactive
CC(=O)Nc1ccccc1C(=O)N1CCN(Cc2ccc3c(c2)OCO3)CC1	inconclusive: 13%
CC1(C)Cc2ccccc2C(CC2=NC(C)(C)Cc3ccccc32)=N1	inactive
O=C(Nc1cc(Br)cc2cccnc12)c1ccccc1Br	inconclusive: 13%
CC(C)Cn1cnc2c(N)nc3ccccc3c21	active: 41%
Cc1ccc2oc([C@H]3CCN(C(=O)C4CCCCC4)C3)nc2c1	inconclusive: 14%
Cc1ccc2c(c1)c1c(n2C)C(O)CCC1 (stereo not given)	inconclusive: 10%
Cc1ccc(-c2nnc(-c3nc(NCc4ccccc4)c4ccccc4n3)o2)cc1	inconclusive: 26%
COc1ccc(-c2csc(/C(C#N)=C\c3cccnc3)n2)cc1	active: 31%
CCOC(=O)c1cccc(NS(=O)(=O)c2ccc3[nH]c(=O)sc3c2)c1	inactive
CCSc1nnc(NC(=O)c2ccc(C)c([N+](=O)[O-])c2)s1	inconclusive: 11%
CC1(C)CC(=O)C2=C(C1)Nc1nc(SCc3ccccc3)nn1C2c1cccs1 (stereo not given)	inconclusive: 10%
Cc1[nH]nc2c1C(c1cccc(Cl)c1)C1=C(CC(C)(C)CC1=O)N2 (stereo not given)	inactive
COc1ccc(-n2c(SC)nc3c([nH]c4ccccc43)c2=O)cc1	inconclusive: 11%
Cc1cc(Cl)ccc1OCc1nc(-c2nonc2N)no1	inactive
COc1ccc(N2C(=O)C3CCCN3C2c2cc(OC)ccc2OC)cc1 (stereo not given)	inactive
O=C(Cn1nc(C2CCNCC2)n(Cc2ccccc2)c1=O)N1CCCCC1	inconclusive: 13%
Cc1cc(NC(=O)CN2C(=O)S/C(=C\c3ccccc3)C2=O)no1	inactive
O=C1C=CC(=NOS(=O)(=O)c2ccc(Cl)cc2)C=C1	active: 48%
Cn1nc(C2CCN(c3nccs3)CC2)n(Cc2ccccc2)c1=O	inconclusive: 14%
O=C(C[C@@H]1O[C@H](CNCc2ccc(F)cc2)[C@@H](O)[C@H]1O)NCc1ccc(F)cc1	inconclusive: 11%
O=c1oc2ccccc2cc1-c1csc(-c2cc3cc([N+](=O)[O-])ccc3oc2=O)n1	inconclusive: 11%
Cc1ccc(C2=N/C(=C\c3ccc(I)cc3)C(=O)O2)cc1[N+](=O)[O-]	inconclusive: 16%
